Here are results for 79 substances from the supplement of paper PMC5949888.

Most values lie at the floor of the assay. Slopes are relative: functional sequences can read slightly below zero.

This data set has as its system Saccharomyces cerevisiae PS128 hsf1 delta, HSF1(1-493) fusion. Nature of the data set: growth estimate (transactivation domain function in HSF1 fusion, heat-shock survival) (a.u. (slope of normalised read count over time)); higher = stronger growth at 37°C, i.e. more transactivation activity. The settings on record: library: random library.
With RDKDVKAVPDARSGLAC, the growth estimate was less than -0.25.
To GERHVVPEYWLQASVIHAGR belongs less than -0.25; to SLDDRYACNLYWEASRLAPR, less than -0.25; to RLPGAGICGWA, -0.184.
Under DTGSAEIIYAIACPPDVVAA stands less than -0.25.
On to SIIRSSCVCCRQKKASLAGN, for which the growth estimate was less than -0.25.
Under VVRFHSGRQYTQVL stands less than -0.25.
Under GQCESDADYCWLRVR stands less than -0.25; under VRACLTLSAELSAPKCPRHI, less than -0.25.
Under DQRAQAVQYRSESRAEAPTR stands less than -0.25.
For AVPRFIAAPRKAPEGGSWLG, the growth estimate was less than -0.25.
In the case of LDVVLTSNHTGARVFS, the growth estimate is less than -0.25.
As to LLGANLQESSIGGQLSVVDP, the growth estimate was less than -0.25.
Under IAKASLARGMLVSLYGMDRG stands less than -0.25.
To SCNALHLWVSRTGAWFANSR belongs less than -0.25; to SGIGYYPRGAALCNHLLVSP, less than -0.25; to SAVREGGVDLVKGTLRVNVG, less than -0.25.
Under WLSTECLCQVQLLILVVIVS stands less than -0.25.
Take WPARGPYTRNFAGLFPFMTV: the growth estimate is less than -0.25.
To SCYTERDQFGAAWAATSGVT belongs less than -0.25; to RILGSTPSVPAIHRS, less than -0.25.
Under RNVKAR stands less than -0.25; under FEIRALWKLTHR, less than -0.25.
Regarding ELATGGSKGRTCQVQHWWVA, the growth estimate was less than -0.25.
Under GCFLH stands less than -0.25; under HIGSDYTPLYCFCDHVIWG, less than -0.25.
Under ITFKKARFLFIWQNPIGVIR stands less than -0.25; under SKSGRRKPRGGGNPRSRLNA, less than -0.25; under LNWLWLGFIRQLLICAPSCR, less than -0.25.
Under GRMGSDVILRR stands less than -0.25; under LVTLYRTDVNCLDRSGHHVH, less than -0.25; under GFWGP, less than -0.25.
With QYPGDFGGIRTLGVTMVSL, the growth estimate was less than -0.25.
Turning to WTGAGPGIGSCGSPFKSAAL, the growth estimate is less than -0.25.
To FPELSSCRGPAIKRPIALCT belongs less than -0.25; to DLILIFALGEMDVGVCRLSG, less than -0.25; to SRF, less than -0.25.
Turning to KKRGVTNLSLEARQMKRSGR, the growth estimate was less than -0.25.
Under PMERQDGCSAQARGVNNWLP stands less than -0.25; under EFQDTSS, less than -0.25; under IGGPEKS, less than -0.25.
To RSLEVQELHQRG belongs less than -0.25; to AFPAIEPQR, less than -0.25.
Under NVPGGLASPLLSK stands -0.246; under FHLDRVIRDHTKGPDRSLPH, less than -0.25; under GSY, less than -0.25.
Turning to TSDLSEVGRDF, the growth estimate is less than -0.25.
To YVAPL belongs less than -0.25.
To PVSI belongs less than -0.25; to GSGARMYVVLLP, -0.245.
Under RRSPKCGEDAPRELVFGTND stands less than -0.25; under RFEAKR, less than -0.25.
RQGFIFCPSSSMVSAQSTQT: the growth estimate is less than -0.25.
FGSSKL: the growth estimate was less than -0.25.
To GIPAKEASSLSRSAPTRNNP belongs less than -0.25; to FVKQFRHQCQAEDVTCRRRT, less than -0.25.
As for LQSPTDGSVGCVFFLEDPGG, the growth estimate is less than -0.25.
Under AGLESVRLFLASPGSIITLN stands less than -0.25.
Take HAFRRGLVCRGYKWDCAENG: the growth estimate was -0.245.
To SCVNGSVLWG belongs less than -0.25; to PSCIAVSSTLNRSLRIDGQV, less than -0.25; to ARKDGEGGARRYGPRT, less than -0.25.
Regarding FGGTTSF, the growth estimate is less than -0.25.
Regarding CLLLGEDAKTRCTRCLTVSR, the growth estimate was less than -0.25.
To VGETEVDAATR belongs less than -0.25; to KVHTALWYRVRQSGSYCLTN, less than -0.25; to CLGSRAYGELRPIRE, less than -0.25.
To VRSFVSRGLHR belongs less than -0.25; to FFGCSNSCDQLPSFKAKHRS, less than -0.25.
Under TKLYPNPPYMRRSIGLAVPG stands less than -0.25; under VTHGCTGALRYTSALRHCTK, less than -0.25; under EKSRITASGRVFSRGLSRLV, less than -0.25.
Take SVNLGQAVIQADPPSGALRR: the growth estimate was less than -0.25.
In the case of FGVRCGLAMPIVRPGDALAY, the growth estimate is -0.246.
To SWVDKLTSSSQAGS belongs less than -0.25; to PGRFTRSRE, less than -0.25; to VDRLGNRACTSTFDAAF, less than -0.25.
Under PCTGAYSTCSVMEL stands less than -0.25; under GFFTWRIQRR, less than -0.25.
